Laboratory results published in paper PMC6090974.
Results are given in words; binding and its absence hold for the method and conditions named. Binding seen in cells or lysates may run through a third protein. Some binding calls cover weakened binding; strength is not graded here. For part of these data: Sequences can lack the tags named with a protein.

Sequences of proteins named here, by UniProt entry; tags and fusion partners are left off. A change or cut given only in a name is not applied to a line headed by its entry.
UniProt Q92769: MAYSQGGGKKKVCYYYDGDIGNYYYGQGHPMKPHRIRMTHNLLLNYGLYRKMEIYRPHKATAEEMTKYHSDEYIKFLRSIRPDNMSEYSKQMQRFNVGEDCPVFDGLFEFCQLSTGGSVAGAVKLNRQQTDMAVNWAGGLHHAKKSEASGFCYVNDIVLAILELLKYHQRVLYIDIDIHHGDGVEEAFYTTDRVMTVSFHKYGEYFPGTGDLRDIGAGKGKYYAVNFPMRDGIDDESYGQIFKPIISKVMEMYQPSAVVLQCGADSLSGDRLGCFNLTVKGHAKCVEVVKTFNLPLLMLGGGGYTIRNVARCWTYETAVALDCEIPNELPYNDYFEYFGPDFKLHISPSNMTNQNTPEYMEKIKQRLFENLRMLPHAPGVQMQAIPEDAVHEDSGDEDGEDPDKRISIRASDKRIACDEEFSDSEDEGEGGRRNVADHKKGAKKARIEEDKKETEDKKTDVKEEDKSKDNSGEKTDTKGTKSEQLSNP

T1: Tricho-rhino-phalangeal syndrome 1 (TRPS1) transcription factor, endogenous (human (endogenous in MCF7 and T47D)) (UniProt Q9UHF7)
T1 sequence: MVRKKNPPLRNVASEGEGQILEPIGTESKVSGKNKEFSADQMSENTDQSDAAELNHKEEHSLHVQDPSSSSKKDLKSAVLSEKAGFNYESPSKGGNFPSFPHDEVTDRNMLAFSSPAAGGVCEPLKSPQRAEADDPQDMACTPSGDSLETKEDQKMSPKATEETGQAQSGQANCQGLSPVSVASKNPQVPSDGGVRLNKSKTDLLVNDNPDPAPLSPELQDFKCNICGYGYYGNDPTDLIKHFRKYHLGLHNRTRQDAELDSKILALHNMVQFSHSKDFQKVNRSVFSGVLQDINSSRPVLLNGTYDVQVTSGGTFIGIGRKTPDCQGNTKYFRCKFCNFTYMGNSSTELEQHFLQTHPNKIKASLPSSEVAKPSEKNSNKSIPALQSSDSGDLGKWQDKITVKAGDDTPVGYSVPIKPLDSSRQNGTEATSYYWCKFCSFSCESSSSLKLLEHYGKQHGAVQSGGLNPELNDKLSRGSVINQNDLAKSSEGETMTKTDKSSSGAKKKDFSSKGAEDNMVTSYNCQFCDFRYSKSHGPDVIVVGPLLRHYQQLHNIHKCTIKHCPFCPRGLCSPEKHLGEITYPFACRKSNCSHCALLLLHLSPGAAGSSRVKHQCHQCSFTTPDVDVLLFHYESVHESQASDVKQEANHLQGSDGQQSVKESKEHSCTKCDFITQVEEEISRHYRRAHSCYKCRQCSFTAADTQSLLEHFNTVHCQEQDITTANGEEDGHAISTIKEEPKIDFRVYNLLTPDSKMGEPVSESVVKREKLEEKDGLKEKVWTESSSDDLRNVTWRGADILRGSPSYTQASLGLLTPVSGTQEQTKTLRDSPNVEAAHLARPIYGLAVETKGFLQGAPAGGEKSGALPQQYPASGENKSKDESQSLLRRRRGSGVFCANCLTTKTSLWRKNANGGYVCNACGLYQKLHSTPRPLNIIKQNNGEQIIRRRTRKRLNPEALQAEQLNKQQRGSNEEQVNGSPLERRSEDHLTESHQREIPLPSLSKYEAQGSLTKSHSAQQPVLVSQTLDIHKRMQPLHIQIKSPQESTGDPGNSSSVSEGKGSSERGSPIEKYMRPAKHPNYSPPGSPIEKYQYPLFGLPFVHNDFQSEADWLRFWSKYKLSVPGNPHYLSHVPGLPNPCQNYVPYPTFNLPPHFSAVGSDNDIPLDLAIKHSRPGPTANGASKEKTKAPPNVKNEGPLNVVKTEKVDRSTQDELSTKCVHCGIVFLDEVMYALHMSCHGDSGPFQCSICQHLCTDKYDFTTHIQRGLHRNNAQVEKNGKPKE


Key:
[1] = molecular target: T1, Tricho-rhino-phalangeal syndrome 1 (TRPS1) transcription factor, endogenous (human (endogenous in MCF7 and T47D)); assay: co-IP; endogenous proteins, MCF7 and T47D lysates, anti-TRPS1 antibody with protein A/G agarose overnight at 4 °C, immunoblot
[2] = molecular target: T1, Tricho-rhino-phalangeal syndrome 1 (TRPS1) transcription factor, endogenous (human (endogenous in MCF7 and T47D)); assay: co-IP; sequential co-IP: MCF7 lysate, control IgG or anti-TRPS1 antibody, eluted from agarose beads with 50 mM Tris-HCl pH 7.4, 900 mM NaCl, 1 mM EDTA, 1% Triton X-100, then a second immunoprecipitation with the indicated antibodies
[3] = molecular target: T1, Tricho-rhino-phalangeal syndrome 1 (TRPS1) transcription factor, endogenous (human (endogenous in MCF7 and T47D)); assay: co-IP; endogenous proteins, MCF7 and T47D lysates, anti-TRPS1 antibody with protein A/G agarose overnight at 4 °C, immunoblot; remark: listed apart in the source
[4] = molecular target: Histone deacetylase 2 (HDAC2), endogenous (human (endogenous in MCF7 and T47D)) (UniProt Q92769); assay: co-IP; endogenous proteins, MCF7 and T47D lysates, anti-HDAC2 antibody; cells with control or TRPS1 siRNA
[5] = molecular target: Myc-HDAC2 (pCDNA3.1-Myc-HDAC2) (UniProt Q92769); assay: co-IP; HEK293T co-transfected with Flag-USP4, Myc-HDAC2 and with or without Flag-TRPS1; anti-Myc antibody, immunoblot

| binding [1] | binding [2] | binding [3] | binding [4] | binding [5] | Molecule |
| --- | --- | --- | --- | --- | --- |
| binds | binds | – | – | – | Histone deacetylase 2 (HDAC2), endogenous (from UniProt Q92769 1-488) |
| – | binds | binds | binds | – | Ubiquitin-specific protease 4 (USP4), endogenous (enzyme, UniProt Q13107 1-963) MAEGGGCRERPDAETQKSELGPLMRTTLQRGAQWYLIDSRWFKQWKKYVGFDSWDMYNVGEHNLFPGPIDNSGLFSDPESQTLKEHLIDELDYVLVPTEAWNKLLNWYGCVEGQQPIVRKVVEHGLFVKHCKVEVYLLELKLCENSDPTNVLSCHFSKADTIATIEKEMRKLFNIPAERETRLWNKYMSNTYEQLSKLDNTVQDAGLYQGQVLVIEPQNEDGTWPRQTLQSKSSTAPSRNFTTSPKSSASPYSSVSASLIANGDSTSTCGMHSSGVSRGGSGFSASYNCQEPPSSHIQPGLCGLGNLGNTCFMNSALQCLSNTAPLTDYFLKDEYEAEINRDNPLGMKGEIAEAYAELIKQMWSGRDAHVAPRMFKTQVGRFAPQFSGYQQQDSQELLAFLLDGLHEDLNRVKKKPYLELKDANGRPDAVVAKEAWENHRLRNDSVIVDTFHGLFKSTLVCPECAKVSVTFDPFCYLTLPLPLKKDRVMEVFLVPADPHCRPTQYRVTVPLMGAVSDLCEALSRLSGIAAENMVVADVYNHRFHKIFQMDEGLNHIMPRDDIFVYEVCSTSVDGSECVTLPVYFRERKSRPSSTSSASALYGQPLLLSVPKHKLTLESLYQAVCDRISRYVKQPLPDEFGSSPLEPGACNGSRNSCEGEDEEEMEHQEEGKEQLSETEGSGEDEPGNDPSETTQKKIKGQPCPKRLFTFSLVNSYGTADINSLAADGKLLKLNSRSTLAMDWDSETRRLYYDEQESEAYEKHVSMLQPQKKKKTTVALRDCIELFTTMETLGEHDPWYCPNCKKHQQATKKFDLWSLPKILVVHLKRFSYNRYWRDKLDTVVEFPIRGLNMSEFVCNLSARPYVYDLIAVSNHYGAMGVGHYTAYAKNKLNGKWYYFDDSNVSLASEDQIVTKAAYVLFYQRRDDEFYKTPSLSSSGSSDGGTRPSSSQQGFGDDEACSMDTN |
| – | – | – | – | binds | Flag-USP4 (pCDNA3.1-Flag-USP4) (enzyme, UniProt Q13107 1-963) MAEGGGCRERPDAETQKSELGPLMRTTLQRGAQWYLIDSRWFKQWKKYVGFDSWDMYNVGEHNLFPGPIDNSGLFSDPESQTLKEHLIDELDYVLVPTEAWNKLLNWYGCVEGQQPIVRKVVEHGLFVKHCKVEVYLLELKLCENSDPTNVLSCHFSKADTIATIEKEMRKLFNIPAERETRLWNKYMSNTYEQLSKLDNTVQDAGLYQGQVLVIEPQNEDGTWPRQTLQSKSSTAPSRNFTTSPKSSASPYSSVSASLIANGDSTSTCGMHSSGVSRGGSGFSASYNCQEPPSSHIQPGLCGLGNLGNTCFMNSALQCLSNTAPLTDYFLKDEYEAEINRDNPLGMKGEIAEAYAELIKQMWSGRDAHVAPRMFKTQVGRFAPQFSGYQQQDSQELLAFLLDGLHEDLNRVKKKPYLELKDANGRPDAVVAKEAWENHRLRNDSVIVDTFHGLFKSTLVCPECAKVSVTFDPFCYLTLPLPLKKDRVMEVFLVPADPHCRPTQYRVTVPLMGAVSDLCEALSRLSGIAAENMVVADVYNHRFHKIFQMDEGLNHIMPRDDIFVYEVCSTSVDGSECVTLPVYFRERKSRPSSTSSASALYGQPLLLSVPKHKLTLESLYQAVCDRISRYVKQPLPDEFGSSPLEPGACNGSRNSCEGEDEEEMEHQEEGKEQLSETEGSGEDEPGNDPSETTQKKIKGQPCPKRLFTFSLVNSYGTADINSLAADGKLLKLNSRSTLAMDWDSETRRLYYDEQESEAYEKHVSMLQPQKKKKTTVALRDCIELFTTMETLGEHDPWYCPNCKKHQQATKKFDLWSLPKILVVHLKRFSYNRYWRDKLDTVVEFPIRGLNMSEFVCNLSARPYVYDLIAVSNHYGAMGVGHYTAYAKNKLNGKWYYFDDSNVSLASEDQIVTKAAYVLFYQRRDDEFYKTPSLSSSGSSDGGTRPSSSQQGFGDDEACSMDTN |
